Reference: patent publication US20130023541A1, “VOLTAGE-GATED SODIUM CHANNEL BLOCKERS” (Glaxo Group Limited, priority 2010, published 2013)
Where a name gives a salt, the structure may show the parent alone. Some entries share one result that the patent states for a list of compounds.

The chains behind the UniProt entries cited, without tags or fusion partners.
UniProt Q15858, whole entry: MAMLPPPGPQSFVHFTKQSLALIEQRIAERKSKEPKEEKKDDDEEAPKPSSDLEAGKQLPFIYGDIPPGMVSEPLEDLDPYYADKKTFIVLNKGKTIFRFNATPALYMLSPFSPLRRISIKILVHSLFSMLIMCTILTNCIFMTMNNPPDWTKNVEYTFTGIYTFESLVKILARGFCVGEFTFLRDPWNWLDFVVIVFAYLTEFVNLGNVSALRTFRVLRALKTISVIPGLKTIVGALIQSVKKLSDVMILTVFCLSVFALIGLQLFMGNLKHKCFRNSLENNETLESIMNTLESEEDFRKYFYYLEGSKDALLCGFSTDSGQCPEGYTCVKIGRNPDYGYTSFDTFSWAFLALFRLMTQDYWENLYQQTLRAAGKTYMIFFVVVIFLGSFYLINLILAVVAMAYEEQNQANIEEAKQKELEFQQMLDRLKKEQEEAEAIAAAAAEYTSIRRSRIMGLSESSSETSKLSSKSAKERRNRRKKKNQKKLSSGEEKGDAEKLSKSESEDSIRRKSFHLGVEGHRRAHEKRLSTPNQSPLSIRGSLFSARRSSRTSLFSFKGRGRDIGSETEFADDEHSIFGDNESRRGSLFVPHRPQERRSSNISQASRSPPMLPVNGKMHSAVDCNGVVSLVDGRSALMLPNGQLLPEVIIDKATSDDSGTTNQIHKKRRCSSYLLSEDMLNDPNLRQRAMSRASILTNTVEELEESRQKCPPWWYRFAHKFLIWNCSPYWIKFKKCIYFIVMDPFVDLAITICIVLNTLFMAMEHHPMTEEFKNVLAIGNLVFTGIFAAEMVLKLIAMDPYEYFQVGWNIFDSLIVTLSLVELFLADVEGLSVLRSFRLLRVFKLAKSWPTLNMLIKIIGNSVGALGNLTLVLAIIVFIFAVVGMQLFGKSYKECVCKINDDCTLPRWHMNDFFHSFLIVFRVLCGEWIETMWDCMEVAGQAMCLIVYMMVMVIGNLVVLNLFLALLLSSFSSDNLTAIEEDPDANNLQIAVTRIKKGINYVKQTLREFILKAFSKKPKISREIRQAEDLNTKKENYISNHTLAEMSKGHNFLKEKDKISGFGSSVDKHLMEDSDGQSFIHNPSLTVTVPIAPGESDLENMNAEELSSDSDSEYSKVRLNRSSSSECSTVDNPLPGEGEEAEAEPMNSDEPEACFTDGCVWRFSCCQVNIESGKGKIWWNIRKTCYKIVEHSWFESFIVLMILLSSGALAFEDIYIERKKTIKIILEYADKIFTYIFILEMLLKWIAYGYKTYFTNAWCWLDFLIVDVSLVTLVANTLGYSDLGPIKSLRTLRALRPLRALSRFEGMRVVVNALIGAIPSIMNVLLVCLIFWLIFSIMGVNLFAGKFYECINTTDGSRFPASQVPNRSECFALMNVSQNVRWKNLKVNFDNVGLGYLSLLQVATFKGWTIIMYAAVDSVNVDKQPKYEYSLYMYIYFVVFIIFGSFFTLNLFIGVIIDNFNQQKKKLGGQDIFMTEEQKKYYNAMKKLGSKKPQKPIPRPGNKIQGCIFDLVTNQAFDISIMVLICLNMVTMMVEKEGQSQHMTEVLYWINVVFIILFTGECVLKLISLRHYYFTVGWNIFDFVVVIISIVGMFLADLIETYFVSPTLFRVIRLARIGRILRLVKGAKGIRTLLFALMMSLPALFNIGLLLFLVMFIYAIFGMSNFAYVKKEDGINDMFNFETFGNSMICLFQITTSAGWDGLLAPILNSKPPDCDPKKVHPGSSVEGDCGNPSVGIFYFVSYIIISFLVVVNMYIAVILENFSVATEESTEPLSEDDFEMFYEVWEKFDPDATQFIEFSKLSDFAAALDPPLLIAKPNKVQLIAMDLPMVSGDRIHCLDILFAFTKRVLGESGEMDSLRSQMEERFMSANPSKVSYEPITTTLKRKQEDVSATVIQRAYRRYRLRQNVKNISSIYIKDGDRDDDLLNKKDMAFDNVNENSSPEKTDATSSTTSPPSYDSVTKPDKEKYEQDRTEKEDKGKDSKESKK
UniProt Q9NY46, whole entry: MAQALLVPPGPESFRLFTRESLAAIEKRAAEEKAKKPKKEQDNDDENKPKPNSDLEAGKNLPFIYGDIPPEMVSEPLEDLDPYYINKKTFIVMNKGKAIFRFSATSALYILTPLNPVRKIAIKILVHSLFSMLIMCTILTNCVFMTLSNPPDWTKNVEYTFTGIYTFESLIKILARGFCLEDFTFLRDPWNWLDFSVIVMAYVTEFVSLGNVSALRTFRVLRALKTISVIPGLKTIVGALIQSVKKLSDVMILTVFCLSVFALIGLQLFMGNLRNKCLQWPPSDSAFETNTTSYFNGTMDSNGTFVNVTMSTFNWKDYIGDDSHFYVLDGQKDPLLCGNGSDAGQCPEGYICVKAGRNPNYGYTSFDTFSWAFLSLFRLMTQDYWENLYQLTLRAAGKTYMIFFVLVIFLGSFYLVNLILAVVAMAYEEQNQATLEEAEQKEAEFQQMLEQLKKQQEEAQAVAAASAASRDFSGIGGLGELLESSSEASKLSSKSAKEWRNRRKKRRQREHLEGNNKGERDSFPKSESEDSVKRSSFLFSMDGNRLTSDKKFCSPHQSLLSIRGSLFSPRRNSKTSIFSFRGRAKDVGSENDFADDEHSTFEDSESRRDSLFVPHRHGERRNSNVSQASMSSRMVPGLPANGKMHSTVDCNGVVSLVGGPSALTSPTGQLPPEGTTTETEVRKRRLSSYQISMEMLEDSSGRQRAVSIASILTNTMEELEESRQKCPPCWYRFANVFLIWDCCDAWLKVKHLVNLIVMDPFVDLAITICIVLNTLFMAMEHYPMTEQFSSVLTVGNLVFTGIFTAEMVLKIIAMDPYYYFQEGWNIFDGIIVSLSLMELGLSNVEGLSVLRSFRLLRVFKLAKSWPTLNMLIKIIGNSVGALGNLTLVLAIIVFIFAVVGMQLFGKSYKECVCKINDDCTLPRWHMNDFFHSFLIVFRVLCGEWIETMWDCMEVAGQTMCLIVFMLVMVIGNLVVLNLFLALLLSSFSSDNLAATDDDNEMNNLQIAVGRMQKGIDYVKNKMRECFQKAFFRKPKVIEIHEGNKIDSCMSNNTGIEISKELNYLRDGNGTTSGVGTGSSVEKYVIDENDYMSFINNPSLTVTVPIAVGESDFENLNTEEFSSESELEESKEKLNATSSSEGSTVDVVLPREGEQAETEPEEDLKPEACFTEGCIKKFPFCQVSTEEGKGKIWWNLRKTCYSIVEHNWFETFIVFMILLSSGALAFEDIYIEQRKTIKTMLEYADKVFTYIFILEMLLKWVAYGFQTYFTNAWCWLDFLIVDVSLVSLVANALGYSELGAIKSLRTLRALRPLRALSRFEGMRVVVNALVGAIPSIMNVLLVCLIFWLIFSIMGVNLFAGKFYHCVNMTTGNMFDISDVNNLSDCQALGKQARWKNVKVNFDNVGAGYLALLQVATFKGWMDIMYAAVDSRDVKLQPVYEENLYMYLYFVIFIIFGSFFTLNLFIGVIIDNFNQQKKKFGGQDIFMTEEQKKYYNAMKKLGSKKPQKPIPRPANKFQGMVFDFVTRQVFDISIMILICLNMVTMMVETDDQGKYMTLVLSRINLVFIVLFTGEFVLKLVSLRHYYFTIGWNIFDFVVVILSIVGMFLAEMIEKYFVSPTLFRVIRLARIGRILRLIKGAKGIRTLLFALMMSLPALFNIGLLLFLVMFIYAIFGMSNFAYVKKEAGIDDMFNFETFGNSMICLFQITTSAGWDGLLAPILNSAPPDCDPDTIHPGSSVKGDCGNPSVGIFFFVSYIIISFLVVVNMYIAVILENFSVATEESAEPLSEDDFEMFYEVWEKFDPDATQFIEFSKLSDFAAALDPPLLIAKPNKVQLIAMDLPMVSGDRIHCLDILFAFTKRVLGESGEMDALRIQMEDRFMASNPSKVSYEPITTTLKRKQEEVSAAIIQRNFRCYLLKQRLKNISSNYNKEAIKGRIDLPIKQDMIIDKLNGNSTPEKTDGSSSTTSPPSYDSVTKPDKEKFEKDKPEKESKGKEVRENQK

Legend:
NaV 1.7 = NaV 1.7 (Homo sapiens, UniProt Q15858); test: Use-dependent block of NaV1.7 currents, IonWorks Quattro planar array electrophysiology; assay type: cell-based; conditions: concentration producing 15% use-dependent inhibition, 10th versus 1st depolarizing pulse, 10 Hz
hNaV1.3 channels = target: T1, hNaV1.3 channels (Homo sapiens, UniProt Q9NY46); test: Use-dependent block of hNaV1.3 currents, IonWorks Quattro planar array electrophysiology; assay type: cell-based; conditions: concentration producing 15% use-dependent inhibition, 10th versus 1st depolarizing pulse, 10 Hz, CHO cells
T1 construct: expressed in transfected cells

| Structure (SMILES) | use-dependent pUD15 against NaV1.7 (NaV 1.7) | use-dependent pUD15 against NaV1.3 (hNaV1.3 channels) |
| --- | --- | --- |
| CCN(Cc1cc(CN(CC)[C@@H]2CCN(c3ncccc3COC(=O)CC(C)(C)C)C2)[nH]n1)[C@@H]1CCN(c2ncccc2COC(=O)CC(C)(C)C)C1 [Example 540, 1H-pyrazole-3,5-diylbis[methanediyl(ethylimino)(3R)-3,1-pyrrolidinediyl-2,3-pyridinediylmethanediyl]bis(3,3-dimethylbutanoate) quaternary hydrochloride] | 4-4.99 | 4-4.99 |
| CC(C)OC(=O)c1cccnc1N1CCN(Cc2cccc(OCc3cccc4ccccc34)c2)CC1 [Example 413] | inactive | 5-5.99 |
| COC(=O)c1ccc(-c2cccc(CN3CCN(c4ncccc4C(=O)OC(C)C)CC3)c2)cc1 [Example 362] | 4-4.99 | 5-5.99 |
| COc1cc(COc2cccc(CN3CCN(c4ncccc4C(=O)OC(C)C)CC3)c2)cc(OC)c1 [Example 397] | 5-5.99 | 5-5.99 |
| CC(C)OC(=O)c1cccnc1N1CCN(Cc2cccc(COc3c(F)cccc3F)c2)CC1 [Example 207] | 4-4.99 | 5-5.99 |
| CC(=O)Nc1ccc(CN2CCN(c3nccc(C)c3C(=O)OC(C)C)CC2)cc1 [Example 246] | 4-4.99 | 4-4.99 |
| CCOc1ccccc1Nc1ccnc(N2CCN(Cc3ccccc3)CC2)c1C(=O)OC(C)C [Example 102, 1-methylethyl 4-{[2-(ethyloxy)phenyl]amino}-2-[4-(phenylmethyl)-1-piperazinyl]-3-pyridinecarboxylate] | 4-4.99 | 4-4.99 |
| CCN(Cc1cccc(OC(C)C)c1)[C@@H]1CCN(c2nccc(-c3ccccc3)c2C(=O)OC(C)C)C1 [Example 166, 1-methylethyl 2-{(3R)-3-[ethyl({3-[(1-methylethyl)oxy]phenyl}methyl)amino]-1-pyrrolidinyl}-4-phenyl-3-pyridinecarboxylate] | inactive | 4-4.99 |
| CC(C)OC(=O)c1cccnc1N(C)[C@@H]1CCN(Cc2ccccc2Oc2ccc(S(N)(=O)=O)cc2)C1 [Example 259, 1-methylethyl 2-[{(3R)-1-[(2-{[4-(aminosulfonyl)phenyl]oxy}phenyl)methyl]-3-pyrrolidinyl}(methyl)amino]-3-pyridinecarboxylate] | 5-5.99 | 5-5.99 |
| CCN(Cc1cccnc1)[C@@H]1CCN(c2nccc(C)c2C(=O)OC(C)C)C1 [Example 286, 1-methylethyl 2-{(3R)-3-[ethyl(3-pyridinylmethyl)amino]-1-pyrrolidinyl}-4-methyl-3-pyridinecarboxylate] | 4-4.99 | 5-5.99 |
| Cc1ccccc1COc1ccc(CN2CCN(c3ncccc3C(=O)OC(C)C)CC2)cc1 [Example 456] | 4-4.99 | 4-4.99 |
| CCN(Cc1cccs1)[C@@H]1CCN(c2nccc(-c3ccccc3)c2C(=O)OC(C)C)C1 [Example 150, 1-methylethyl 2-{(3R)-3-[ethyl(2-thienylmethyl)amino]-1-pyrrolidinyl}-4-phenyl-3-pyridinecarboxylate] | inactive | 4-4.99 |
| CCN(Cc1ccccc1OCc1ccccc1)[C@@H]1CCN(c2nccc(C)c2C(=O)OC(C)C)C1 [Example 283, 1-methylethyl 2-{(3R)-3-[ethyl({2-[(phenylmethyl)oxy]phenyl}methyl)amino]-1-pyrrolidinyl}-4-methyl-3-pyridinecarboxylate] | inactive | inactive |
| CC(C)OC(=O)c1c(Nc2cccc(Cl)c2)ccnc1N1CCN(Cc2ccccc2)CC1 [Example 100, 1-methylethyl 4-[(3-chlorophenyl)amino]-2-[4-(phenylmethyl)-1-piperazinyl]-3-pyridinecarboxylate] | 4-4.99 | 4-4.99 |
| CCN(Cc1ccc(C(=O)OC)cc1)[C@@H]1CCN(c2nccc(-c3ccccc3)c2C(=O)OC(C)C)C1 [Example 155, 1-methylethyl 2-{(3R)-3-[ethyl({4-[(methyloxy)carbonyl]phenyl}methyl)amino]-1-pyrrolidinyl}-4-phenyl-3-pyridinecarboxylate] | inactive | 4-4.99 |
| CC(C)OC(=O)c1cccnc1N1CCN(Cc2ccc(CCc3ccccc3)cc2)CC1 [Example 40, 1-Methylethyl2-(4-{[4-(2-phenylethyl)phenyl]methyl}-1-piperazinyl)-3-pyridinecarboxylate hydrochloride] | 5-5.99 | 5-5.99 |
| COc1ccc(OC)c(COc2ccc(CN3CCN(c4ncccc4C(=O)OC(C)C)CC3)cc2)c1 [Example 459] | 4-4.99 | 5-5.99 |

| Structure (SMILES) | use-dependent pUD15 against NaV1.7 (NaV 1.7) | use-dependent pUD15 against NaV1.3 (hNaV1.3 channels) |
| --- | --- | --- |
| Cc1cc(CN2CCN(c3ncccc3C(=O)OC(C)C)CC2)sc1C [Example 2, 1-Methylethyl 2-{4-[(4,5-dimethyl-2-thienyl)methyl]-1-piperazinyl}-3-pyridinecarboxylate] | 5-5.99 | 5-5.99 |
| CC(C)OC(=O)c1cccnc1N1CCN(Cc2cccc(COc3ccc(C(C)(C)C)cc3)c2)CC1 [Example 210] | 4-4.99 | 4-4.99 |
| CC(C)OC(=O)c1cccnc1N1CCN(Cc2cccc(OCc3ccc(F)cc3Cl)c2)CC1 [Example 77] | inactive | 4-4.99 |
| CCN(Cc1cnc(CN(CC)[C@@H]2CCN(c3ncccc3COC(=O)CC(C)(C)C)C2)cn1)[C@@H]1CCN(c2ncccc2COC(=O)CC(C)(C)C)C1 [Example 541, 2,5-pyrazinediylbis[methanediyl(ethylimino)(3R)-3,1-pyrrolidinediyl-2,3-pyridinediylmethanediyl]bis(3,3-dimethylbutanoate) hydrochloride] | 5-5.99 | 5-5.99 |
| CC(C)OC(=O)c1cccnc1N1CCN(Cc2ccc(CN3CCN(c4ncccc4C(=O)OC(C)C)CC3)cc2)CC1 [Example 535, Bis(1-methylethyl) 2,2′-[benzene-1,4-diylbis(methanediyl-4,1-piperazinediyl)]di(3-pyridinecarboxylate)] | inactive | inactive |
| CCCOc1ccc(CN2CCN(c3nccc(-c4ccccc4)c3C(=O)OC(C)C)CC2)cc1 [Example 138, 1-methylethyl 4-phenyl-2-(4-{[4-(propyloxy)phenyl]methyl}-1-piperazinyl)-3-pyridinecarboxylate] | 4-4.99 | 5-5.99 |
| CCCCCCOc1ccc(CN(CC)[C@@H]2CCN(c3ncccc3C(=O)OC(C)C)C2)cc1 [Example 62, 1-methylethyl 2-[(3R)-3-(ethyl{[4-(hexyloxy)phenyl]methyl}amino)-1-pyrrolidinyl]-3-pyridinecarboxylate] | 5-5.99 | 4-4.99 |
| CC(C)OC(=O)c1cccnc1N1CCN(Cc2ccc(CN3CCN(Cc4ccccn4)CC3)cc2)CC1 [Example 465] | 5-5.99 | 5-5.99 |
| CC(C)OC(=O)c1c(-c2ccccc2)ccnc1N1CCN(Cc2ccccc2-c2ccccc2)CC1 [Example 142, 1-methylethyl 2-[4-(2-biphenylylmethyl)-1-piperazinyl]-4-phenyl-3-pyridinecarboxylate] | 4-4.99 | inactive |
| Cc1ccc(COc2ccc(CN3CCN(c4ncccc4C(=O)OC(C)C)CC3)cc2)c(C)c1 [Example 446] | 5-5.99 | 4-4.99 |
| CC(C)OC(=O)c1cccnc1N1CCN(Cc2ccc(Oc3ccc(Br)cc3)cc2)CC1 [Example 337] | inactive | 4-4.99 |
| CCOc1ccc(CN(CC)[C@@H]2CCN(c3nccc(-c4ccccc4)c3C(=O)OC(C)C)C2)cc1 [Example 157, 1-methylethyl 2-[(3R)-3-(ethyl{[4-(ethyloxy)phenyl]methyl}amino)-1-pyrrolidinyl]-4-phenyl-3-pyridinecarboxylate] | 4-4.99 | 5-5.99 |
| CC(C)OC(=O)c1cccnc1N(C)[C@@H]1CCNC1 [Example 25, 1-Methylethyl 2-{methyl[(3R)-3-pyrrolidinyl]amino}-3-pyridinecarboxylate hydrochloride] | 4-4.99 | 5-5.99 |
| CC(C)OC(=O)c1cccnc1N1CCN(Cc2cccc(OCc3ccc(C(C)(C)C)cc3)c2)CC1 [Example 396] | inactive | 5-5.99 |
| CCN(Cc1cccc(F)c1C)[C@@H]1CCN(c2nccc(-c3ccccc3)c2C(=O)OC(C)C)C1 [Example 163, 1-methylethyl 2-((3R)-3-{ethyl[(3-fluoro-2-methylphenyl)methyl]amino}-1-pyrrolidinyl)-4-phenyl-3-pyridinecarboxylate] | inactive | inactive |
| Cc1ccnc(N2CCN(Cc3cnc(N4CCOCC4)s3)CC2)c1C(=O)OC(C)C [Example 254] | 5-5.99 | 4-4.99 |
| CC(C)OC(=O)c1cccnc1N1CCN(Cc2ccc(Oc3ccc(Cl)cc3Cl)cc2)CC1 [Example 358] | inactive | 4-4.99 |
